Reference: PubChem BioAssay AID1508597 (Cure First, 2020)

Test: 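Genes whose silencing sensitises or protects ovarian cancer cells against rucaparib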 (primary screen)
System: human ovarian carcinoma lines grown from tumours: OCI-P5x (papillary serous) and OCI-C5x (clear cell)
Reagent: siRNA pool against human genes, 1.25 pmol siRNA per well
Time to read-out: 72 h or 96 h, depending on the cell culture
Conditions: rucaparib 20 µM (about IC30) or vehicle, present until read-out
Rucaparib or vehicle: Vehicle
Cell line: OCI-C5x (clear cell)
Detection: 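Luminescent ATP-based viability assay read 72 or 96 h after transfection, depending on culture, given as normalised percent viability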
Direction: viability, normalised: higher = more viable cells remaining
Active means: 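a well counts as a hit if its normalised viability is under 80 percent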
Meaning of the calls: active = viability under 80%; inactive = viability 80% or more
This is an unselected part of the about 2,100 reagents, in one setting of the screen. 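Calls flag viability under 80% in either arm, not effects specific to rucaparib; the reference for percent is not stated.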 Some reagents were tested in more than one well and are listed for each. The record does not give: the 100% reference.

| target gene | technical replicate | viability, normalised (%) | outcome |
| --- | --- | --- | --- |
| AURKA | 1 | 46.5 | active |
| AURKA | 1 | 21.4 | active |
| AURKA | 2 | 44.9 | active |
| AURKA | 2 | 29.4 | active |
| AURKA | 3 | 30.2 | active |
| AURKA | 3 | 38.6 | active |
| GNPAT | 1 | 58 | active |
| GNPAT | 2 | 71.4 | active |
| GNPAT | 3 | 53 | active |
| ALKBH2 | 1 | 58.6 | active |
| ALKBH2 | 2 | 79.7 | active |
| ALKBH2 | 3 | 44.6 | active |
| CDK2 | 1 | 60.5 | active |
| CDK2 | 1 | 49 | active |
| CDK2 | 2 | 51.9 | active |
| CDK2 | 2 | 38.3 | active |
| CDK2 | 3 | 52.6 | active |
| CDK2 | 3 | 41.4 | active |
| BCL6 | 1 | 44.3 | active |
| BCL6 | 2 | 40.4 | active |
| BCL6 | 3 | 30.2 | active |
| PRKG1 | 1 | 55.3 | active |
| PRKG1 | 2 | 53.8 | active |
| PRKG1 | 3 | 68.3 | active |
| SOX9 | 1 | 58.2 | active |
| SOX9 | 2 | 55.4 | active |
| SOX9 | 3 | 58.2 | active |
| INO80B | 1 | 61.8 | active |
| INO80B | 2 | 32.3 | active |
| INO80B | 3 | 52 | active |
| POLD4 | 1 | 56.9 | active |
| POLD4 | 2 | 51 | active |
| POLD4 | 3 | 43 | active |
| UBR2 | 1 | 37.9 | active |
| UBR2 | 2 | 43.9 | active |
| UBR2 | 3 | 40.1 | active |
| CHMP6 | 1 | 34.5 | active |
| CHMP6 | 2 | 43.1 | active |
| CHMP6 | 3 | 45.2 | active |
